# Some results were stated once for a whole list of compounds, not compound by compound.
# Tested on: Taxol-stabilized, rhodamine-labeled microtubules
# Experiment: Microscope-based microtubule severing assay
# Type: biochemical
# Conditions: 0.1 μM protein, 1 mM ATP
# Method: FIGS. 5A, 5B, and 5C illustrate the activities of recombinant katanin subunits. […] Taxol-stabilized, rhodamine-labeled microtubules were adsorbed onto the surface of a microscope perfusion chamber, and then recombinant katanin subunits were introduced. The time elapsed after perfusing p60/p80 (0.1 μM), p60 (0.1 μM), or p80 (0.5 μM) is shown. The recombinant co-expressed p60/p80 and p60, but not p80, can sever and disassemble microtubules. Scale bar, 10 μm.
# Microscope-based severing assays were performed using previously published procedures (McNally and Vale (1993) Cell, 75: 419-429), except that microtubules were immobilized by first perfusing flow cells with a bacterially expressed kinesin mutant that binds strongly to microtubules but is unable to hydrolyze ATP (K560, G234A mutant; R. Vale and E. Taylor, unpublished results). Assays were performed in 20 mM Hepes (pH 7.5), 2 mM MgCl2, 1 mM ATP with an oxygen scavenger system consisting of glucose oxidase (220 μg/ml), catalase (36 μg/ml), glucose (22.5 mM), and 2-mercaptoethanol (71.5 mM). Images were captured using a cooled, slow-scan CCD (Photometerics) and processed using Adobe Photoshop.
row,Molecule,time until broken microtubules were observed [min]
1,"p60: S. purpuratus katanin p60 subunit, 516 a.a. AAA ATPase (SEQ ID NO:1), baculovirus-expressed with N-terminal His(6) tag (protein, listed as Strongylocentrotus purpuratus, N-terminal His6 tag; katanin p60 subunit) MSVDEICENTKMGREYALLGNYETSLVYYQGVLQQIQKLLTSVHEPQRKHQWQTIRQELSQEYEHVKNITKTLNGFKSEPAAPEPAPNHRAAPFSHHQHAAKPAAAEPARDPDVWPPPTPVDHRPSPPYQRAARKDPPRRSEPSKPANRAPGNDRGGRGPSDRRGDARSGGGGRGGARGSDKDKNRGGKSDKDKKAPSGEEGDEKKFDPAGYDKDLVENLERDIVQRNPNVHWADIAGLTEAKRLLEEAVVLPLWMPDYFKGIRRPWKGVLMVGPPGTGKTMLAKAVATECGTTFFNVSSASLTSKYHGESEKLVRLLFEMARFYAPSTIFIDEIDSICSKRGTGSEHEASRRVKSELLIQMDGVSGPSAGEESSKMVMVLAATNFPWDIDEALRRRLEKRIYIPLPEIDGREQLLRINLKEVPLADDIDLKSIAEKMDGYSGADITNVCRDASMMAMRRRIQGLRPEEIRHIPKEELNQPSTPADFLLALQKVSKSVGKEDLVKYMAWMEEFGSV",≤ 1
2,p60/p80: co-expressed recombinant katanin p60/p80 heterodimer complex from baculovirus-infected insect cells (protein) chain 1: HHHHHHMSVDEICENTKMGREYALLGNYETSLVYYQGVLQQIQKLLTSVHEPQRKHQWQTIRQELSQEYEHVKNITKTLNGFKSEPAAPEPAPNHRAAPFSHHQHAAKPAAAEPARDPDVWPPPTPVDHRPSPPYQRAARKDPPRRSEPSKPANRAPGNDRGGRGPSDRRGDARSGGGGRGGARGSDKDKNRGGKSDKDKKAPSGEEGDEKKFDPAGYDKDLVENLERDIVQRNPNVHWADIAGLTEAKRLLEEAVVLPLWMPDYFKGIRRPWKGVLMVGPPGTGKTMLAKAVATECGTTFFNVSSASLTSKYHGESEKLVRLLFEMARFYAPSTIFIDEIDSICSKRGTGSEHEASRRVKSELLIQMDGVSGPSAGEESSKMVMVLAATNFPWDIDEALRRRLEKRIYIPLPEIDGREQLLRINLKEVPLADDIDLKSIAEKMDGYSGADITNVCRDASMMAMRRRIQGLRPEEIRHIPKEELNQPSTPADFLLALQKVSKSVGKEDLVKYMAWMEEFGSV chain 2: HHHHHHMATKRAWKLQELVAHSSNVNCLALGPMSGRVMVTGGEDKKVNLWAVGKQNCIISLSGHTSPVDSVKFNSSEELVVAGSQSGTMKIYDLEPAKIVRTLTGHRNSIRCMDFHPFGEFVASGSTDTNVKLWDVRRKGCIYTYKGHSDQVNMIKFSPDGKWLVTASEDTTIKLWDLTMGKLFQEFKNHTGGVTGIEFHPNEFLLASGSSDRTVQFWDLETFQLVSSTSPGASAVRSISFHPDGSYLFCSSQDMLHAFGWEPIRCFDTFSVGWGKVADTVIASTQLIGASFNATNVSVYVADLSRMSTTGIAQEPQSQPSKTPSGGAEEVPSKPLTASGRKNFVRERPHTTSSKQRQPDVKSEPERQSPTQDEGVKDDDATDIKDPDSYAKIFSPKTRVDHSPERNAQPFPAPLDVPGAQEPEPFKHPPKPAAAAAVAPVSRAPAPSASDWQPAQANPAPNRVPAATKPVPAQEVAPSRKPDPISTIIPSDRNKPANLDMDAFLPPAHAQQAPRVNAPASRKQSDSERIEGLRKGHDSMCQVLSSRHRNLDVVRAIWTAGDAKTSVESVVNMKDQAILVDILNIMLLKKSLWNLDMCVVVLPRLKELLSSKYENYVHTSCACLKLILKNFTSLFNQNIKCPPSGIDITREERYNKCSKCYSYLIATRGYVEEKQHVSGKLGSSFRELHLLLDQLE,≤ 1

# — patent US6429304B1, “Nucleic acids encoding a katanin p60 subunit” (The Regents of the University of California, priority 1998, dated 2002)
